{"source": "the supplement of paper PMC12823440", "about": "“Inhibitors supercharge kinase turnover through native proteolytic circuits” (Nature, 2025)", "note": "Counter-ions that a name gives are not always drawn. The list shows a part of the results. The calls rarely recur for the same compound in another form.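 In K562 cells expressing nanoluciferase-fused kinases, luminescence was recorded at 4 h intervals between 2 and 18 h, normalized as percent of control with DMSO at 100% and a positive control at 0%. A significant (2 sigma) signal drop marks a time point as decreased. The authors' rule for a hit is not shown and takes in more than the number of time points.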", "data": [{"molecular_target": "EGFR_L858R (UniProt P00533)", "test": "kinase-Nluc reporter destabilization hit call (1 = scored as downregulated) (binary); higher = compound decreases kinase abundance", "conditions": "K562; 2-18 h", "values": [{"smiles": "O=c1[nH]c2ccccc2n1C1CCN(Cc2ccc(-c3[nH]c4cc5ncnc5cc4nc3-c3ccccc3)cc2)CC1", "note": "[AKT inhibitor VIII] (2.5 µM)", "kinase-Nluc reporter destabilization hit call": "inactive: 0"}, {"smiles": "C[C@H]1CC[C@]2(NC1)O[C@H]1C[C@H]3[C@@H]4CC[C@H]5C[C@@H](O[C@@H]6O[C@H](CO)[C@H](O[C@@H]7O[C@H](CO)[C@@H](O)[C@H](O[C@@H]8OC[C@@H](O)[C@H](O)[C@H]8O)[C@H]7O[C@@H]7O[C@H](CO)[C@@H](O)[C@H](O)[C@H]7O)[C@H](O)[C@H]6O)CC[C@]5(C)[C@H]4CC[C@]3(C)[C@H]1[C@@H]2C", "note": "[Tomatine] (2.5 µM)", "kinase-Nluc reporter destabilization hit call": "inactive: 0"}, {"smiles": "C=C[C@H]1CN2CC[C@]3(C(=O)Nc4ccccc43)[C@@H]2C[C@@H]1/C(=C\\OC)C(=O)OC", "note": "[Corynoxeine] (2 µM)", "kinase-Nluc reporter destabilization hit call": "inactive: 0"}, {"smiles": "C=CC(=O)Nc1ccc2[nH]c(=O)n(C3CCN(Cc4ccc(-c5nc6cc[nH]c(=O)c6cc5-c5ccccc5)cc4)CC3)c2c1", "note": "[Borussertib] (10 µM)", "kinase-Nluc reporter destabilization hit call": "inactive: 0"}, {"smiles": "CCOC(=O)c1c(/C(C#N)=C\\N)c2ccc(Cl)c(Cl)c2n1C", "note": "(10 µM)", "kinase-Nluc reporter destabilization hit call": "inactive: 0"}, {"smiles": "CC(=O)OC(C)(C)/C=C/C(=O)[C@](C)(O)[C@H]1[C@H](O)C[C@@]2(C)[C@@H]3CC=C4[C@@H](C=C(O)C(=O)C4(C)C)[C@]3(C)C(=O)C[C@]12C", "note": "[Cucurbitacin E] (2.5 µM)", "kinase-Nluc reporter destabilization hit call": "inactive: 0"}, {"smiles": "Cc1[nH]ncc1-c1cc2nc([C@H]3CC4CCN3CC4)[nH]c(=O)c2s1", "note": "[(R)-Simurosertib] (10 µM)", "kinase-Nluc reporter destabilization hit call": "inactive: 0"}, {"smiles": "C[C@H]1CC[C@]2(NC1)O[C@H]1C[C@H]3[C@@H]4CC[C@H]5C[C@@H](O)CC[C@]5(C)[C@H]4CC[C@]3(C)[C@H]1[C@@H]2C", "note": "[Tomatidine] (2 µM)", "kinase-Nluc reporter destabilization hit call": "inactive: 0"}, {"smiles": "O=Cc1cn(Cc2ccc(Cl)cc2)c2ccccc12", "note": "[Oncrasin-1] (10 µM)", "kinase-Nluc reporter destabilization hit call": "inactive: 0"}, {"smiles": "O=[N+]([O-])/C=C/c1ccc2c(c1)OCO2", "note": "(2.5 µM)", "kinase-Nluc reporter destabilization hit call": "inactive: 0"}, {"smiles": "CCN1CCN(C(=O)Cc2ccc(Nc3ncc(F)c(Nc4ccc(C(=O)Nc5ccccc5Cl)cc4)n3)cc2)CC1", "note": "(2.5 µM)", "kinase-Nluc reporter destabilization hit call": "inactive: 0"}, {"smiles": "COc1ccc2c(c[n+](C)c3c4cc5c(cc4ccc23)OCO5)c1OC", "note": "[Chelerythrine (chloride)] (10 µM)", "kinase-Nluc reporter destabilization hit call": "inactive: 0"}, {"smiles": "COC[C@H]1OC(=O)c2coc3c2[C@@]1(C)C1=C(C3=O)[C@@H]2CCC(=O)[C@@]2(C)C[C@H]1OC(C)=O", "note": "[Wortmannin] (2.5 µM)", "kinase-Nluc reporter destabilization hit call": "inactive: 0"}, {"smiles": "C[C@H]1CC[C@]2(NC1)O[C@H]1C[C@H]3[C@@H]4CC[C@H]5C[C@@H](O)CC[C@]5(C)[C@H]4CC[C@]3(C)[C@H]1[C@@H]2C", "note": "[Tomatidine (hydrochloride)] (10 µM)", "kinase-Nluc reporter destabilization hit call": "inactive: 0"}, {"smiles": "COc1ccc(/C=C/c2cc(OC)c(OC)c(OC)c2)cc1", "note": "(2.5 µM)", "kinase-Nluc reporter destabilization hit call": "inactive: 0"}, {"smiles": "O=c1cc(O)c2ccccc2o1", "note": "[4-Hydroxycoumarin] (10 µM)", "kinase-Nluc reporter destabilization hit call": "inactive: 0"}, {"smiles": "C=CC(=O)N[C@H]1C=C(C)c2c(-c3cnc4ccccc4c3)c3c(N)ncnc3n2C1", "note": "(10 µM)", "kinase-Nluc reporter destabilization hit call": "inactive: 0"}, {"smiles": "N#CC(C#N)=Cc1ccc([N+](=O)[O-])c(O)c1", "note": "(10 µM)", "kinase-Nluc reporter destabilization hit call": "inactive: 0"}, {"smiles": "O=C(O)c1sc2cc(Cl)ccc2c1Cl", "note": "(10 µM)", "kinase-Nluc reporter destabilization hit call": "inactive: 0"}, {"smiles": "Cc1n[nH]cc1-c1cc2nc([C@@H]3CC4CCN3CC4)[nH]c(=O)c2s1", "note": "[Simurosertib] (2.5 µM)", "kinase-Nluc reporter destabilization hit call": "inactive: 0"}, {"smiles": "Cn1cc(C2=C(c3cn(C4CCN(Cc5ccccn5)CC4)c4ccccc34)C(=O)NC2=O)c2ccccc21", "note": "[Enzastaurin] (10 µM)", "kinase-Nluc reporter destabilization hit call": "inactive: 0"}, {"smiles": "CN(C)C(=O)c1ccc(Cn2c(C(=O)O)cc3c(Br)cc(Sc4ccc(Cl)c(Cl)c4)cc32)cc1", "note": "[Rheb inhibitor NR1] (10 µM)", "kinase-Nluc reporter destabilization hit call": "inactive: 0"}, {"smiles": "C/C(O)=C(\\C#N)C(=O)Nc1cc(Br)ccc1Br", "note": "(10 µM)", "kinase-Nluc reporter destabilization hit call": "inactive: 0"}, {"smiles": "O=C1c2ccccc2C(=O)c2c1cccc2-c1cnn(C2CCNCC2)c1", "note": "[PDK4-IN-1 (hydrochloride)] (10 µM)", "kinase-Nluc reporter destabilization hit call": "inactive: 0"}, {"smiles": "COc1ccc(N(C(=O)Oc2c(C)cccc2C)c2ccnc(Nc3ccc(N4CCN(C)CC4)cc3)n2)c(OC)c1", "note": "(2.5 µM)", "kinase-Nluc reporter destabilization hit call": "inactive: 0"}, {"smiles": "C[C@@H]1CC[C@H]2[C@@H](C)C(=O)O[C@@H]3O[C@@]4(C)CC[C@@H]1[C@]32OO4", "note": "[Artemisinin] (10 µM)", "kinase-Nluc reporter destabilization hit call": "inactive: 0"}, {"smiles": "CC(C)(C)c1cc(C=C(C#N)C#N)cc(Br)c1O", "note": "(2.5 µM)", "kinase-Nluc reporter destabilization hit call": "inactive: 0"}, {"smiles": "CC1=C[C@]23C(=O)[C@@H](C=C(CO)[C@@H](O)[C@]2(O)[C@H]1O)[C@H]1[C@@H](C[C@H]3C)C1(C)C", "note": "[Ingenol] (10 µM)", "kinase-Nluc reporter destabilization hit call": "inactive: 0"}]}, {"molecular_target": "EGFR_L861Q (UniProt P00533)", "test": "kinase-Nluc reporter destabilization hit call (1 = scored as downregulated) (binary); higher = compound decreases kinase abundance", "conditions": "K562; 2-18 h", "values": [{"smiles": "O=c1[nH]c2ccccc2n1C1CCN(Cc2ccc(-c3[nH]c4cc5ncnc5cc4nc3-c3ccccc3)cc2)CC1", "note": "[AKT inhibitor VIII] (2.5 µM)", "kinase-Nluc reporter destabilization hit call": "inactive: 0"}, {"smiles": "C[C@H]1CC[C@]2(NC1)O[C@H]1C[C@H]3[C@@H]4CC[C@H]5C[C@@H](O[C@@H]6O[C@H](CO)[C@H](O[C@@H]7O[C@H](CO)[C@@H](O)[C@H](O[C@@H]8OC[C@@H](O)[C@H](O)[C@H]8O)[C@H]7O[C@@H]7O[C@H](CO)[C@@H](O)[C@H](O)[C@H]7O)[C@H](O)[C@H]6O)CC[C@]5(C)[C@H]4CC[C@]3(C)[C@H]1[C@@H]2C", "note": "[Tomatine] (2.5 µM)", "kinase-Nluc reporter destabilization hit call": "inactive: 0"}, {"smiles": "C=C[C@H]1CN2CC[C@]3(C(=O)Nc4ccccc43)[C@@H]2C[C@@H]1/C(=C\\OC)C(=O)OC", "note": "[Corynoxeine] (2 µM)", "kinase-Nluc reporter destabilization hit call": "inactive: 0"}, {"smiles": "C=CC(=O)Nc1ccc2[nH]c(=O)n(C3CCN(Cc4ccc(-c5nc6cc[nH]c(=O)c6cc5-c5ccccc5)cc4)CC3)c2c1", "note": "[Borussertib] (10 µM)", "kinase-Nluc reporter destabilization hit call": "inactive: 0"}, {"smiles": "CCOC(=O)c1c(/C(C#N)=C\\N)c2ccc(Cl)c(Cl)c2n1C", "note": "(10 µM)", "kinase-Nluc reporter destabilization hit call": "inactive: 0"}, {"smiles": "CC(=O)OC(C)(C)/C=C/C(=O)[C@](C)(O)[C@H]1[C@H](O)C[C@@]2(C)[C@@H]3CC=C4[C@@H](C=C(O)C(=O)C4(C)C)[C@]3(C)C(=O)C[C@]12C", "note": "[Cucurbitacin E] (2.5 µM)", "kinase-Nluc reporter destabilization hit call": "inactive: 0"}, {"smiles": "Cc1[nH]ncc1-c1cc2nc([C@H]3CC4CCN3CC4)[nH]c(=O)c2s1", "note": "[(R)-Simurosertib] (10 µM)", "kinase-Nluc reporter destabilization hit call": "inactive: 0"}, {"smiles": "C[C@H]1CC[C@]2(NC1)O[C@H]1C[C@H]3[C@@H]4CC[C@H]5C[C@@H](O)CC[C@]5(C)[C@H]4CC[C@]3(C)[C@H]1[C@@H]2C", "note": "[Tomatidine] (2 µM)", "kinase-Nluc reporter destabilization hit call": "inactive: 0"}, {"smiles": "O=Cc1cn(Cc2ccc(Cl)cc2)c2ccccc12", "note": "[Oncrasin-1] (10 µM)", "kinase-Nluc reporter destabilization hit call": "inactive: 0"}, {"smiles": "O=[N+]([O-])/C=C/c1ccc2c(c1)OCO2", "note": "(2.5 µM)", "kinase-Nluc reporter destabilization hit call": "inactive: 0"}, {"smiles": "CCN1CCN(C(=O)Cc2ccc(Nc3ncc(F)c(Nc4ccc(C(=O)Nc5ccccc5Cl)cc4)n3)cc2)CC1", "note": "(2.5 µM)", "kinase-Nluc reporter destabilization hit call": "inactive: 0"}, {"smiles": "COc1ccc2c(c[n+](C)c3c4cc5c(cc4ccc23)OCO5)c1OC", "note": "[Chelerythrine (chloride)] (10 µM)", "kinase-Nluc reporter destabilization hit call": "inactive: 0"}, {"smiles": "COC[C@H]1OC(=O)c2coc3c2[C@@]1(C)C1=C(C3=O)[C@@H]2CCC(=O)[C@@]2(C)C[C@H]1OC(C)=O", "note": "[Wortmannin] (2.5 µM)", "kinase-Nluc reporter destabilization hit call": "inactive: 0"}, {"smiles": "C[C@H]1CC[C@]2(NC1)O[C@H]1C[C@H]3[C@@H]4CC[C@H]5C[C@@H](O)CC[C@]5(C)[C@H]4CC[C@]3(C)[C@H]1[C@@H]2C", "note": "[Tomatidine (hydrochloride)] (10 µM)", "kinase-Nluc reporter destabilization hit call": "inactive: 0"}, {"smiles": "COc1ccc(/C=C/c2cc(OC)c(OC)c(OC)c2)cc1", "note": "(2.5 µM)", "kinase-Nluc reporter destabilization hit call": "inactive: 0"}, {"smiles": "O=c1cc(O)c2ccccc2o1", "note": "[4-Hydroxycoumarin] (10 µM)", "kinase-Nluc reporter destabilization hit call": "inactive: 0"}, {"smiles": "C=CC(=O)N[C@H]1C=C(C)c2c(-c3cnc4ccccc4c3)c3c(N)ncnc3n2C1", "note": "(10 µM)", "kinase-Nluc reporter destabilization hit call": "inactive: 0"}, {"smiles": "N#CC(C#N)=Cc1ccc([N+](=O)[O-])c(O)c1", "note": "(10 µM)", "kinase-Nluc reporter destabilization hit call": "inactive: 0"}, {"smiles": "O=C(O)c1sc2cc(Cl)ccc2c1Cl", "note": "(10 µM)", "kinase-Nluc reporter destabilization hit call": "inactive: 0"}, {"smiles": "Cc1n[nH]cc1-c1cc2nc([C@@H]3CC4CCN3CC4)[nH]c(=O)c2s1", "note": "[Simurosertib] (2.5 µM)", "kinase-Nluc reporter destabilization hit call": "inactive: 0"}, {"smiles": "Cn1cc(C2=C(c3cn(C4CCN(Cc5ccccn5)CC4)c4ccccc34)C(=O)NC2=O)c2ccccc21", "note": "[Enzastaurin] (10 µM)", "kinase-Nluc reporter destabilization hit call": "inactive: 0"}, {"smiles": "CN(C)C(=O)c1ccc(Cn2c(C(=O)O)cc3c(Br)cc(Sc4ccc(Cl)c(Cl)c4)cc32)cc1", "note": "[Rheb inhibitor NR1] (10 µM)", "kinase-Nluc reporter destabilization hit call": "inactive: 0"}, {"smiles": "C/C(O)=C(\\C#N)C(=O)Nc1cc(Br)ccc1Br", "note": "(10 µM)", "kinase-Nluc reporter destabilization hit call": "inactive: 0"}, {"smiles": "O=C1c2ccccc2C(=O)c2c1cccc2-c1cnn(C2CCNCC2)c1", "note": "[PDK4-IN-1 (hydrochloride)] (10 µM)", "kinase-Nluc reporter destabilization hit call": "inactive: 0"}, {"smiles": "COc1ccc(N(C(=O)Oc2c(C)cccc2C)c2ccnc(Nc3ccc(N4CCN(C)CC4)cc3)n2)c(OC)c1", "note": "(2.5 µM)", "kinase-Nluc reporter destabilization hit call": "inactive: 0"}, {"smiles": "C[C@@H]1CC[C@H]2[C@@H](C)C(=O)O[C@@H]3O[C@@]4(C)CC[C@@H]1[C@]32OO4", "note": "[Artemisinin] (10 µM)", "kinase-Nluc reporter destabilization hit call": "inactive: 0"}, {"smiles": "CC(C)(C)c1cc(C=C(C#N)C#N)cc(Br)c1O", "note": "(2.5 µM)", "kinase-Nluc reporter destabilization hit call": "inactive: 0"}, {"smiles": "CC1=C[C@]23C(=O)[C@@H](C=C(CO)[C@@H](O)[C@]2(O)[C@H]1O)[C@H]1[C@@H](C[C@H]3C)C1(C)C", "note": "[Ingenol] (10 µM)", "kinase-Nluc reporter destabilization hit call": "inactive: 0"}]}]}
